Assay results taken from US8809367B2, “1-1-Oxo-1,2,3,4-tetrahydroisoquinolin-7-yl)urea derivatives as N-formyl peptide receptor like-1 (FPRL-1) receptor modulators” (Allergan, Inc., priority 2011, dated 2014).
The structures given here were assigned with low confidence; some may be wrong.

Amino acid sequences for entries named in this document (tags omitted).
UniProt P25090, whole entry: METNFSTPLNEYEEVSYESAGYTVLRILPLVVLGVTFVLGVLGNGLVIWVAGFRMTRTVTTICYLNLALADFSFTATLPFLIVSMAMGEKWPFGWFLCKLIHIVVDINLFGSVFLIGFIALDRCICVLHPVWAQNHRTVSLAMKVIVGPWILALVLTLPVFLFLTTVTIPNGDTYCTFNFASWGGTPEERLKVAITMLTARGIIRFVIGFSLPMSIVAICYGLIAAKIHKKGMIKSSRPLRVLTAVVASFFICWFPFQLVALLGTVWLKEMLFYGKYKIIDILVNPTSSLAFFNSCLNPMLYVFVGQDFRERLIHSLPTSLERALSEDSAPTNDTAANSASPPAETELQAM

Molecular target: FPRL-1 (Homo sapiens, UniProt P25090)
Experiment: compound-induced calcium activity on FLIPR Tetra in CHO-Ga16 cells stably expressing FPRL1
Type: cell-based

- FPRL-1 Ga16-CHO (eff) (efficacy value in brackets under EC50): (81)
- EC50 (read-out: FPRL-1 Ga16-CHO EC50, tested at 0.61 to 10,000 nM): 38.4 nM
SMILES: CC(=O)c1ccc(NC(=O)Nc2ccc3c(c2)C(=O)N(CCc2c[nH]cn2)C(c2ccc(Cl)cn2)C3)cc1 (centres unmarked)
